Binding data for 2 molecules are collected here from paper PMC4102794.

Sequences of proteins named here, by UniProt entry; tags and fusion partners are left off.
UniProt Q12834: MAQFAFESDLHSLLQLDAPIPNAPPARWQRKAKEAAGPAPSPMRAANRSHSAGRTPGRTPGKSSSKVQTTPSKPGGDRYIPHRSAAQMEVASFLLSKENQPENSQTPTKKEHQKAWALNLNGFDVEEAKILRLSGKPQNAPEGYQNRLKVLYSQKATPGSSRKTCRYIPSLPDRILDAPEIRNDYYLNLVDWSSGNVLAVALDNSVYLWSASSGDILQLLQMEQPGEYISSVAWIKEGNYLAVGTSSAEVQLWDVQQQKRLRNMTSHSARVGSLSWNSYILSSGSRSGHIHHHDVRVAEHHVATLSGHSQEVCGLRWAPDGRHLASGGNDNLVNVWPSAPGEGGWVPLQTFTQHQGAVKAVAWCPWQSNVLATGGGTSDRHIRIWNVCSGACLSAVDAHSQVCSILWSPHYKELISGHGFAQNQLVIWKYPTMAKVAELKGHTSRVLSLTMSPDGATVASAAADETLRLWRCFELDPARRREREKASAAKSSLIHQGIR
UniProt Q9UM11: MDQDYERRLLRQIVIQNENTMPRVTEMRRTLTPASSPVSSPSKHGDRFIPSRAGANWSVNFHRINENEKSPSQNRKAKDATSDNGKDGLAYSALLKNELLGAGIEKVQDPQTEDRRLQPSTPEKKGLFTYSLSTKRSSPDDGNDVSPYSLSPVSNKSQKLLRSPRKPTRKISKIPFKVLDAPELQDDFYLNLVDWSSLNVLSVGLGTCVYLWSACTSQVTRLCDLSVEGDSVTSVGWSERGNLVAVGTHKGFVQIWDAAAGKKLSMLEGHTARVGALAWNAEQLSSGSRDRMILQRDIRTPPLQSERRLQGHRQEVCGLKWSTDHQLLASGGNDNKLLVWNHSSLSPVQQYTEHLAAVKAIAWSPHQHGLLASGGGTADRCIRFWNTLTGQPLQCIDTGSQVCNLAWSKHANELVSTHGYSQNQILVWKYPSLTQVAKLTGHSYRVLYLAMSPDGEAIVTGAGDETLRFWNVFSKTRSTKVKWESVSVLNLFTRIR

These are yes or no findings as the source states them, for the method shown. In cells and extracts the contact can be indirect. Some results given as binding are weak or reduced against the parent protein; the word gives no strength.

The target in test [1] is HA-tagged Cdc20 (human) (UniProt Q12834). Briefly: co-IP; deletion constructs of BRD7, Cdh1 or Cdc20 to map the binding domains; tags and cells not given.
Test [2] concerns the target HA-tagged Cdh1 (human) (UniProt Q9UM11). The description is as above.

B1: BRD7 N-terminus (residues 1-361) (domain or fragment, UniProt Q9NPI1 1-361)
chain: MGKKHKKHKSDKHLYEEYVEKPLKLVLKVGGNEVTELSTGSSGHDSSLFEDKNDHDKHKDRKRKKRKKGEKQIPGEEKGRKRRRVKEDKKKRDRDRVENEAEKDLQCHAPVRLDLPPEKPLTSSLAKQEEVEQTPLQEALNQLMRQLQRKDPSAFFSFPVTDFIAPGYSMIIKHPMDFSTMKEKIKNNDYQSIEELKDNFKLMCTNAMIYNKPETIYYKAAKKLLHSGMKILSQERIQSLKQSIDFMADLQKTRKQKDGTDTSQSGEDGGCWQREREDSGDAEAHAFKSPSKENKKKDKDMLEDKFKSNNLEREQEQLDRIVKESGGKLTRRLVNSQCEFERRKPDGTTTLGLLHPVDPIV
As to B1, the binding entry in test [1] and in test [2] was “binds” each time.

B2: BRD7 C-terminus (residues 361-651) (domain or fragment, UniProt Q9NPI1 361-651)
chain: VGEPGYCPVRLGMTTGRLQSGVNTLQGFKEDKRNKVTPVLYLNYGPYSSYAPHYDSTFANISKDDSDLIYSTYGEDSDLPSDFSIHEFLATCQDYPYVMADSLLDVLTKGGHSRTLQEMEMSLPEDEGHTRTLDTAKEMEITEVEPPGRLDSSTQDRLIALKAVTNFGVPVEVFDSEEAEIFQKKLDETTRLLRELQEAQNERLSTRPPPNMICLLGPSYREMHLAEQVTNNLKELAQQVTPGDIVSTYGVRKAMGISIPSPVMENNFVDLTEDTEEPKKTDVAECGPGGS
Consider B2, for which the binding entry in test [1] and in test [2] was “binds” throughout.
